Drawing on PMC2700067, this text covers binding for 1 substance.

Amino acid sequences for entries named in this document (tags omitted). A change or cut given only in a name is not applied to a line headed by its entry.
UniProt Q9HC16: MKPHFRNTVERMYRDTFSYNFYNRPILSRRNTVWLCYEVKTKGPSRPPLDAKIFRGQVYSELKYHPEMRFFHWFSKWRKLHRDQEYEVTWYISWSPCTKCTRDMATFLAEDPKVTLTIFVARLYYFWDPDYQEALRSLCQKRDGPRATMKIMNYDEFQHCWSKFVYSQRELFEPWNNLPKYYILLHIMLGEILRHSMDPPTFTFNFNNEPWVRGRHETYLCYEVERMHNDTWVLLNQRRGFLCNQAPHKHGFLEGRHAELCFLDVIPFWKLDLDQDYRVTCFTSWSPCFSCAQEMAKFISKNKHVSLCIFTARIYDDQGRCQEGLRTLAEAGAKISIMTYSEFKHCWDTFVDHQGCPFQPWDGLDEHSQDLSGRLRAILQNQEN

Some targets named below: C288S-CY (human) (UniProt Q9HC16); C97S-CY (human) (UniProt Q9HC16); H257R-CY (human) (UniProt Q9HC16).
Assay in all cases: split reporter; BiFC: NY (YFP 1-172) and CY (YFP 173-238) fusions co-transfected into HeLa cells with mRFP1; live-cell confocal microscopy at 37°C and 5% CO2, about 14 h after transfection

No constants are given. Whether binding was seen depends on the method and setting. Binding seen in cells or lysates may run through a third protein. Some results given as binding are weak or reduced against the parent protein; the word gives no strength.

As to C97S-NY (from UniProt Q9HC16 1-384), the binding result is recorded as “binds weakly” in the test with C288S-CY (human), “no binding” with C97S-CY (human) and “binds weakly” with H257R-CY (human).
